Reference: patent publication US20100042137A1, “ACUPUNCTURE AND ACUPRESSURE THERAPIES” (priority 2008, published 2010)

Experiments:
Patients with Arthritis = assay: Treatment of patients with arthritis by injection at or near acupuncture points; pain level x/10; type: in vivo, human; settings: same patient as E5
Source text: Treatment of Patients with Arthritis
(i) A patient presented with a 5/10 pain from severe rheumatoid arthritis.
(ii) A patient presented with an 8/10 pain from severe rheumatoid arthritis.
(iii) A patient presented with 8/10 pain from severe rheumatoid arthritis with diffuse joint stiffness, swelling and tenderness.
(i) A patient presented with a pain level of 10/10 from cervical strain due to seronegative rheumatoid arthritis.
(ii) A patient presented with a 7.5/10 pain globally from a seronegative arthritis (unspecified).
A patient presented with a 5/10 pain from bilateral post-traumatic subtalar arthritis.

human patients = assay: Treatment with epinephrine or Restylane at specific influential points, also in combination with magnets; pain level x/10; type: in vivo; settings: same patient

CCN(CC)CC(=O)Nc1c(C)cccc1C [lidocaine]
time remained pain free (Patients with Arthritis): 2 weeks
remained pain-free at time later (human patients): ≥ 1 week
